Binding data for three molecules are collected here from article PMC9325753, “Chilling-induced phosphorylation of IPA1 by OsSAPK6 activates chilling tolerance responses in rice”.

Assay [1] deals with T1, OsSAPK6-CFP^N (rice (Oryza sativa L. subsp. japonica)) (UniProt Q6ZI44).
T1 sequence: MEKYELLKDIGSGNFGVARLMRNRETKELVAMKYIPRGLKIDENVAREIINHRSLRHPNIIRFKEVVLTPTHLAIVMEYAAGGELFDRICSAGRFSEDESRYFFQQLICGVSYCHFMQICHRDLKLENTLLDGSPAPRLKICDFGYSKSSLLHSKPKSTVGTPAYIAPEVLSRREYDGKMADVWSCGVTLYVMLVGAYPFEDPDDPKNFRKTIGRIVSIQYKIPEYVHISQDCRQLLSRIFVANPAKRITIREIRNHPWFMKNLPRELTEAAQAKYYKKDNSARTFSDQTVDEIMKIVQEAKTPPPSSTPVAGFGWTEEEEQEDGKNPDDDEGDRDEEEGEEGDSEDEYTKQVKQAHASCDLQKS
Kind of assay: split reporter; BiFC in rice leaf protoplasts; CFP^N and CFP^C fusions (puc-SCYNE, puc-SCYCE) co-expressed from 35S promoter, incubated in the dark overnight, confocal microscopy.

In assay [2] the target is T2, IPA1 fused with a HA tag (HA-IPA1) (rice (Oryza sativa L. subsp. japonica)) (UniProt Q7EXZ2).
T2 sequence: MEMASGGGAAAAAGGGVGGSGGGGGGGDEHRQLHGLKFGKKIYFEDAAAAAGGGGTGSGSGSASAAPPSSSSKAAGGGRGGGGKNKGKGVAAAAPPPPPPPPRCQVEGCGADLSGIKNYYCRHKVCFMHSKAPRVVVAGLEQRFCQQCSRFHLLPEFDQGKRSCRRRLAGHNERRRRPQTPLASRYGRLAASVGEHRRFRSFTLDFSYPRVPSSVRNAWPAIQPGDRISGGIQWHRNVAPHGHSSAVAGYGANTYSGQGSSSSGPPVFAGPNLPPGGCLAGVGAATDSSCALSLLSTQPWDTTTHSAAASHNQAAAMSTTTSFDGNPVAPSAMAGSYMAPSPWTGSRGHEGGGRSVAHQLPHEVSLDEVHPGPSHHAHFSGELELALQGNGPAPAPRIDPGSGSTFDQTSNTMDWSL
Kind of assay: co-IP; HA-IPA1 and OsSAPK6-GFP co-expressed in rice protoplasts; extracts immunoprecipitated with anti-IPA1 monoclonal antibody, detected with anti-GFP.

Assay [3] has as its target T3, IPA1 in pGBKT7 (yeast two-hybrid bait) (rice (Oryza sativa L. subsp. japonica)) (UniProt Q7EXZ2).
T3 sequence: T2 sequence
Kind of assay: two-hybrid; Matchmaker GAL4-based Two-Hybrid System 3; OsSAPK6 in pGADT7, IPA1 in pGBKT7; yeast AH109; selection on -Leu/-Trp/-His/-Ade.

These are yes or no findings as the source states them, for the method shown. For part of these data: Binding seen in cells or lysates may run through a third protein. Some results given as binding are weak or reduced against the parent protein; the word gives no strength. For part of these data: Tags and fused reporters may be left off the sequences shown.

B1: IPA1^1–181-CFP^C (domain or fragment, UniProt Q7EXZ2 1-181)
chain: MEMASGGGAAAAAGGGVGGSGGGGGGGDEHRQLHGLKFGKKIYFEDAAAAAGGGGTGSGSGSASAAPPSSSSKAAGGGRGGGGKNKGKGVAAAAPPPPPPPPRCQVEGCGADLSGIKNYYCRHKVCFMHSKAPRVVVAGLEQRFCQQCSRFHLLPEFDQGKRSCRRRLAGHNERRRRPQTP
In the case of B1, the binding entry in assay [1] was “no binding”.

B2: OsSAPK6 fused with GFP (OsSAPK6-GFP) (enzyme, UniProt Q6ZI44 1-365)
chain: T1 sequence
Regarding B2, the binding result in assay [2] is reported as “binds”.

B3: OsSAPK6 in pGADT7 (yeast two-hybrid prey) (enzyme, UniProt Q6ZI44 1-365)
chain: T1 sequence
Regarding B3, in assay [3], the binding result is reported as “binds”.
